# Experimental data published in patent publication EP0180615B1, “NOVEL ATRIAL NATRIURETIC/VASODILATOR POLYPEPTIDES” (priority 1984, dated 1995).
# At least one peptide structure holds a part that was inferred or is arguable (an end, a ring closure or a residue).
# Assays:
# [1] = tested on: histamine-contracted aortic rings; test: relaxation of histamine-precontracted rabbit thoracic aortic rings; settings: rings precontracted with 5 X 10^-6 M histamine; cumulative addition (Figure 8)
# [2] = tested on: cultured bovine aortic smooth muscle cells; test: cyclic GMP accumulation in cultured aortic smooth muscle cells; format: cell-based; settings: dose-response, % of maximal cyclic GMP increase (Figure 11A)
# Excerpt: (§1) Since the agonistic action of ANVP in vascular smooth muscle not only results from binding to specific receptors, but is also associated with increases in cyclic GMP, the effects of ANVPs and analogs on cyclic GMP accumulation were examined using the same cultured cells. […] In Figure 11A & B, the relative activities of ANVP and analogs on cyclic GMP accumulation in aortic smooth muscle and endothelial cells are shown. The data is plotted in a dose-response relationship (log dose vs % of maximal cyclic GMP increases).
# [3] = tested on: cultured bovine aortic endothelial cells; test: cyclic GMP accumulation in cultured aortic endothelial cells; format: cell-based; settings: dose-response, % of maximal cyclic GMP increase (Figure 11B)
# Excerpt: as §1
# [4] = tested on: intact rat; test: natriuresis after bolus injection in the intact anesthetized rat; format: in vivo; settings: Inactin anesthetized rats on constant saline infusion
# Protocol: Synthetic ANVP compounds rANVP(126-149), rANVP(126-150) and hANVP(127-151) were also found to be natriuretic in the intact rat. These compounds were administered as a bolus injection to Inactin anesthetized rats (100 mg/kg, average weight 399 g) which were maintained on a constant infusion of normal saline at 2.2 ml/hr. […] Data are expressed as mean ± SE.
structure (smiles),measurement,setting,value
"CC[C@H](C)[C@@H]1NC(=O)[C@H](CCCNC(=N)N)NC(=O)[C@H](CC(=O)O)NC(=O)[C@H](CCSC)NC(=O)[C@H](CCCNC(=N)N)NC(=O)CNC(=O)CNC(=O)[C@H](Cc2ccccc2)NC(=O)[C@@H](NC(=O)[C@H](CO)NC(=O)[C@H](CO)NC(=O)[C@@H](N)CCCNC(=N)N)CSSC[C@@H](C(=O)N[C@@H](CC(N)=O)C(=O)N[C@@H](CO)C(=O)N[C@@H](Cc2ccccc2)C(=O)N[C@@H](CCCNC(=N)N)C(=O)N[C@@H](Cc2ccc(O)cc2)C(=O)O)NC(=O)CNC(=O)[C@H](CC(C)C)NC(=O)CNC(=O)[C@H](CO)NC(=O)[C@H](CCC(N)=O)NC(=O)[C@H](C)NC(=O)CNC1=O [hANVP(127-151), hANVP (127-151)]",ability to relax histamine-contracted aortic rings (relative potency),[1],equivalent to rANVP(126-150)
same,"rank order of potency, cyclic GMP accumulation",[2],> rANVP(127-150) = other D amino acid substitutions
same,"rank order of potency, cyclic GMP accumulation",[3],> rANVP(127-150) = other D amino acid substitutions
same,natriuretic in the intact rat,[4],natriuretic
